Residue numbers refer to the chain shown, from its start. No constants are given. Whether binding was seen depends on the method and setting. Binding seen in cells or lysates may run through a third protein. A yes stands for co-enrichment or nearness to the bait. Other partners may have been found.
Assays:
Assay in all cases: affinity purification with mass spectrometry; biotinylated purified bait on streptavidin-coated magnetic beads; prey: DNA/RNA-depleted extract of B. subtilis 168; relative ion scores against a 'no bait' pulldown; only the target purified
[1] = biological target: T1, Biotinylated full length PcrA L714A (Geobacillus stearothermophilus) (UniProt P56255)
T1 sequence (chain, biotin): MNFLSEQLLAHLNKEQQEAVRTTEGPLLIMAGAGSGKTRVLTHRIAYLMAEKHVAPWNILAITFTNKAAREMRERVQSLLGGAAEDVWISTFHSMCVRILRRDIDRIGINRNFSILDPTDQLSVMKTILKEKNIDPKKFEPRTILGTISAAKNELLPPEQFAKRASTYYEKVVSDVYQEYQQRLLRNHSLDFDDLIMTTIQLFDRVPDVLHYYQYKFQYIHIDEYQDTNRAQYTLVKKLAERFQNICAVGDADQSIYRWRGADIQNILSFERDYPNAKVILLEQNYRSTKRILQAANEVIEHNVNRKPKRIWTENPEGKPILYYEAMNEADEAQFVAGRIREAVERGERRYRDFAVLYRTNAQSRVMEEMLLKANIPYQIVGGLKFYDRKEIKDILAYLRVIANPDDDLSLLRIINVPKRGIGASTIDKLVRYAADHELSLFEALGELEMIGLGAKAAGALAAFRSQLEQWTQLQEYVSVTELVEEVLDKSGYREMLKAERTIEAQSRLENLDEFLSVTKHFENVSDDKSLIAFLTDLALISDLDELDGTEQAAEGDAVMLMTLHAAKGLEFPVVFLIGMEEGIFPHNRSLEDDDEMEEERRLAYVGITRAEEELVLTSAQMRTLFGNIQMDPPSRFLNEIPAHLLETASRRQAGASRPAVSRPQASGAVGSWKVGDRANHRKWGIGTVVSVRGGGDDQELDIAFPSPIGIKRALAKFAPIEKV

By UniProt entry, the sequences of proteins in these tests, tags left out.
UniProt O31498: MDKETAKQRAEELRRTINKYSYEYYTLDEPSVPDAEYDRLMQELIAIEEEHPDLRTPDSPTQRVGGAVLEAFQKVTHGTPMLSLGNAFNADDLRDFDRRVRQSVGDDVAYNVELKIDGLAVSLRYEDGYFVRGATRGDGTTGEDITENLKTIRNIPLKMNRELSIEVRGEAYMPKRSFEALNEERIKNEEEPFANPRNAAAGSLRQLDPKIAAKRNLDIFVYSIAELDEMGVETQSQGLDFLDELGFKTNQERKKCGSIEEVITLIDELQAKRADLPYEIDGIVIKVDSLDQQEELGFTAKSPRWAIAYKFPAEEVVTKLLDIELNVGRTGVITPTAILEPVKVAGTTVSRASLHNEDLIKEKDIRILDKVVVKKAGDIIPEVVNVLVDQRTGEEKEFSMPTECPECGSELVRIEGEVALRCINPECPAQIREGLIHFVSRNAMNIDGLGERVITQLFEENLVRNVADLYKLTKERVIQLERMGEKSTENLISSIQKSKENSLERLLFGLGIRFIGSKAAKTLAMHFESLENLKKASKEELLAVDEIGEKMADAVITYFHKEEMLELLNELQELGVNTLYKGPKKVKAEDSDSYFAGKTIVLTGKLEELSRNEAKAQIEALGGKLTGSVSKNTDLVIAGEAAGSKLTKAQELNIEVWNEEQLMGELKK

[2] = biological target: T2, Biotinylated full length PcrA (Geobacillus stearothermophilus), wild type (Geobacillus stearothermophilus) (UniProt P56255)
T2 sequence (chain, biotin): T1 sequence (chain, biotin) with A714L

[3] = biological target: T3, Biotinylated full length PcrA K712A (Geobacillus stearothermophilus) (UniProt P56255)
T3 sequence (chain, biotin): T1 sequence (chain, biotin) with K712A, A714L

[4] = biological target: T4, Biotinylated PcrA-Ct (residues 653-724 of Geobacillus stearothermophilus PcrA) (Geobacillus stearothermophilus) (UniProt P56255)
T4 sequence (chain, biotin): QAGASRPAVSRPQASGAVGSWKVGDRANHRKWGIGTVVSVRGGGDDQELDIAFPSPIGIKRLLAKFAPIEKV

binding [1]: binds | binding [2]: binds | binding [3]: binds | binding [4]: binds weakly
Substance: LigA (NAD+-dependent DNA ligase), Bacillus subtilis (from UniProt O31498 1-668) (enzyme)

Source: publication PMC5397179
